Experiment [1] deals with integrin α5 (mouse (endogenous in Atg5KO MEFs)) (UniProt P11688). In words: co-IP; anti-integrin α5 antibody coupled to Dynabeads protein G; lysate of Atg5KO MEFs, basal or treated with etoposide, with or without TAK-243 (100 nM) for 12 hr before collection.
The target of the next experiment is T1, mesothelin (Msln) (UniProt Q61468).
T1 sequence: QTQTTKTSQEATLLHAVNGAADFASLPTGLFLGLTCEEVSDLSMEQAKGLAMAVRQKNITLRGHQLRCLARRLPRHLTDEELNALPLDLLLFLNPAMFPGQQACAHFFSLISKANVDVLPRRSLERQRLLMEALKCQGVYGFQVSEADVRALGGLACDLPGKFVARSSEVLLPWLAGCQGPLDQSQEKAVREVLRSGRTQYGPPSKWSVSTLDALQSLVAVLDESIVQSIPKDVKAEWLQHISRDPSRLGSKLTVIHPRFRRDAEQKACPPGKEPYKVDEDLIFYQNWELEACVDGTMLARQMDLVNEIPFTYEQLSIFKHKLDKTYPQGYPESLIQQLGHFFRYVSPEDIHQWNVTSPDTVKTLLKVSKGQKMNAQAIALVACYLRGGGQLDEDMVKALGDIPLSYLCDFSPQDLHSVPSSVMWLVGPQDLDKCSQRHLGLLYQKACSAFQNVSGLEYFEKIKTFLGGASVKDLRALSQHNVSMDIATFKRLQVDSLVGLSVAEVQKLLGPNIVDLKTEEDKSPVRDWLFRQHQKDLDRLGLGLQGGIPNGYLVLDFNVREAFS
In words: co-IP; anti-MSLN antibody coupled to Dynabeads protein G; with or without etoposide and TAK-243 (Supplementary Fig. 15l); cells not given.

Sequences of proteins named here, by UniProt entry; tags and fusion partners are left off. Residues count along the entry.
UniProt P11688, residues 45-1053: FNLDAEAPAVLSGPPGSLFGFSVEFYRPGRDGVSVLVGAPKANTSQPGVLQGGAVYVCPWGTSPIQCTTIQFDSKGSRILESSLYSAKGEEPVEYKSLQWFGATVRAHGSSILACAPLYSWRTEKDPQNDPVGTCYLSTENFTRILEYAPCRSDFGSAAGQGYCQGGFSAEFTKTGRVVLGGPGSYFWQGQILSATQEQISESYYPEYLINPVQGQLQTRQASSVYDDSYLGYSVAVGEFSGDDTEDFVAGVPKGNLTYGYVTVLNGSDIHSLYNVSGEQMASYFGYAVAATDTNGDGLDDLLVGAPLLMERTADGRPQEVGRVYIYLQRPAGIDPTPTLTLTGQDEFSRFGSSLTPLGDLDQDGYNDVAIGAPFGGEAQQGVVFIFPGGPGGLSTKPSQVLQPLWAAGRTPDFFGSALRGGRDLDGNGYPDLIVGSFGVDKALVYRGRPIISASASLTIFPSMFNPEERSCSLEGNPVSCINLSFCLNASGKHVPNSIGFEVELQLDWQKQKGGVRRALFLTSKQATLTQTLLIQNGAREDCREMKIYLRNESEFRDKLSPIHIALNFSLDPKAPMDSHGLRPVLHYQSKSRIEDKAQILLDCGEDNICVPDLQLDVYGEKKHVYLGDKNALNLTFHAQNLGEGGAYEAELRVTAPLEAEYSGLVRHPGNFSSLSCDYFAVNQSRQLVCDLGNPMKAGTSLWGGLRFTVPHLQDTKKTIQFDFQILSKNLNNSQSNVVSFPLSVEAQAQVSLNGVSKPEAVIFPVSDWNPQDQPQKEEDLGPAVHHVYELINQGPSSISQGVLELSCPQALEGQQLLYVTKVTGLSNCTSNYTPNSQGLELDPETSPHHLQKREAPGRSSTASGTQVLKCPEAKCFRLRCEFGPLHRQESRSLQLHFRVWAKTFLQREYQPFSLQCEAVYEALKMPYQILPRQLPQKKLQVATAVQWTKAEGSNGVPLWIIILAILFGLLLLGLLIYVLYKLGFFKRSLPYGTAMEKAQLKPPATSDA
UniProt Q8K3K8: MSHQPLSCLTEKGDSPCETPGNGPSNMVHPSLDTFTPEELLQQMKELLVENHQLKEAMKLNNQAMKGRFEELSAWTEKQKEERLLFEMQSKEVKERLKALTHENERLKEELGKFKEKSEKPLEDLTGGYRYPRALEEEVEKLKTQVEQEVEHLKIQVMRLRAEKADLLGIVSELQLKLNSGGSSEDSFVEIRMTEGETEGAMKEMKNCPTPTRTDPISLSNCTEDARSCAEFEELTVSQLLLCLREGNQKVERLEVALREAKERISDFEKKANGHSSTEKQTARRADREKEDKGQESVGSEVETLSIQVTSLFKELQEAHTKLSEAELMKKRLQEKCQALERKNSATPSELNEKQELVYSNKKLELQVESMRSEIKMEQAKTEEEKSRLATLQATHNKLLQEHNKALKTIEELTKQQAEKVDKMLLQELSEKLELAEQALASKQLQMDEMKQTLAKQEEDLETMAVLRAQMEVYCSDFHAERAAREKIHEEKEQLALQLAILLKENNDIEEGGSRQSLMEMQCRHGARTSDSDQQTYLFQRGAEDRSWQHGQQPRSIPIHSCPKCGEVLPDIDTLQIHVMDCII

The source of these data is article PMC12537940.

These are yes or no findings as the source states them, for the method shown. Binding seen in cells or lysates may run through a third protein. Some entries that bind do so weakly or less than the wild type.

“optineurin (Optn) (from UniProt Q8K3K8 1-584)”: the binding result (in experiment [1]; with mesothelin (Msln)) was “binds” each time.
